Results from PubChem BioAssay AID2685 (National Center for Advancing Translational Sciences (NCATS), 2010).
This is one part of the list. The main result of the screen is listed elsewhere. These columns were measured beside it and carry no call. The list favours compounds with an active or inconclusive main result. Potencies come from curve fits of mixed quality, noted in brackets.

Test: qHTS Assay for Lipid Storage Modulators in Drosophila S3 Cells;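 for cell number change: cells counted by Cell Tracker Red CMTPX staining in the red channel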
Details: BODIPY lipid droplet fluorescence, 18-24 h; for cell number change: measured here: cell count max response, cells fed with added oleic acid
In short: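 Drosophila S3 cells loaded with oleic acid (400 uM, as added) and compounds at several concentrations; lipid droplets imaged by 488-nm laser-scanning cytometry, 500–530 nm intensity and object ratio to cell channel. Percent activity normalized to 20 uM Triacsin C.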

[1] = measured here: lipid fluorescence (Fed channel) AC50, cells fed with added oleic acid
[2] = measured here: cell number channel AC50, cells fed with added oleic acid

| Compound | cell number change | AC50 [1] | AC50 [2] |
| --- | --- | --- | --- |
| C/C(=N\NC(=O)COc1cccc(Br)c1)c1ccc2c(c1)OCCO2 | -16.4% | 6.51 µM [rising, single point] | – |
| CNC[C@H](CC1CCCCC1)NC[C@H](CO)NCCc1cccc(C(F)(F)F)c1 | 8.38% | 5.8 µM [rising, partial curve, poor fit] | – |
| NS(=O)(=O)c1ccc(CCNC(=O)c2cnccn2)cc1 | -10.5% | – | – |
| CCn1c(SCC(N)=O)nnc1-c1ccc(S(=O)(=O)N2CCN(C)CC2)cc1 | -17.2% | 0.00517 µM [falling, full curve, poor fit] | – |
| CCCOc1ccc(NC(=O)Cc2ccc(S(=O)(=O)N3CCOCC3)s2)cc1OCCC | -25% | – | 0.58 µM [falling, single point] |
| CC(C)CN1CCC(C(=O)N2CCN(c3ccccc3F)CC2)CC1 | -28.1% | 13 µM [falling, partial curve] | 3.66 µM [falling, full curve, poor fit] |
| O=C(c1cccc([N+](=O)[O-])c1)c1cc2ccccc2o1 | 10.5% | 6.51 µM [falling, full curve] | – |
| O=C1N/C(=N\N=C\c2cccnc2)SC1Cc1ccc(SC(F)F)cc1 (stereo not given) | -5.27% | – | – |
| CCCn1nnnc1NCc1ccc(N(CC)CC)cc1 | -1.93% | – | – |
| COc1ccc([C@@H]2CC=C(C(=O)O)[C@H](c3cccc(Cl)c3)N2S(=O)(=O)c2ccccc2C)cc1 | -18% | 29.1 µM [falling, single point] | – |
| CCOC(=O)Cc1ccc(NC(=O)c2ccc([N+](=O)[O-])cc2)cc1 | 18% | 1.03 µM [rising, single point] | – |
| COc1ccc2sc(N(CCCN(C)C)C(=O)c3nc4ccccc4s3)nc2c1 | 9.68% | – | – |
| C#CCOCCOCCOCCNc1nc(N2CCN(C(=O)CCCCCCCCCCNC(=O)[C@H]([C@@H](C)CC)n3cc(CCCCCN)nn3)CC2)nc(N2CCN(C(=O)CCCCCCCCCCNC(=O)[C@@H]([C@H](C)O)n3cc(C)nn3)CC2)n1 | -64.2% | 25.9 µM [falling, partial curve, poor fit] | 29.1 µM [falling, partial curve, poor fit] |
| COc1ccc(C(=O)Nc2ccc3cn[nH]c3c2)c(OC)c1 | – | 29.1 µM [rising, single point] | 0.461 µM [rising, full curve] |
| CCOC(=O)N1CCN(C(=O)C2CCN(S(=O)(=O)CC)CC2)CC1 | -8.44% | 7.31 µM [falling, partial curve] | – |
| CCc1ccc2[nH]c(O)c(N=NC3=NC(=O)CS3)c2c1 | -6.62% | 7.31 µM [falling, partial curve, poor fit] | – |
